Measured data: PubChem BioAssay AID1159578 (Peter MacCallum Cancer Centre, 2015)

- Screen: 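siRNA pools altering how lymphatic endothelial cells close a scratch wound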 (primary screen)
- Cells: human lymphatic endothelial cells
- Reagents: siRNA pool against human genes, 40 nM
- Time to read-out: 48 h after transfection
- Detection: 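High-content imaging of dye-stained cells in a scratch assay measures filled wound area and nuclei per well; duplicate means given as ratio to mock and robust z-score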
- Direction: migration robust z-score: higher = faster migration into the scratch; nuclei per well: higher = more cells in the well
- Active means: 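Pools averaging fewer than 3300 nuclei are never called; remaining pools count as changed when migration robust z lies outside -2 to 2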
- Meaning of the calls: active = migration changed; inactive = no migration change, or too few cells
In all, the deposit lists about 18,000 reagents; below is a part drawn at random. In the full data, about 1,030 (5.7%) got an active call. 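Inactive calls also include pools with fewer than 3300 nuclei, whose migration was not assessed.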 Raw values vary from plate to plate and are shown uncorrected. Further read-outs or replicates are left out here. No sequences are given here.

gene | migration robust z-score | nuclei per well, duplicate mean | outcome
RNASE8 | -0.01 | 7540 | inactive
CFAP91 | 1.21 | 7094 | inactive
BIRC7 | -3.11 | 4334 | active
ZNF771 | -1.06 | 5356 | inactive
RAI14 | -1.15 | 4456 | inactive
HLA-DQA1 | 0.24 | 5384 | inactive
HMGN2P46 | -0.8 | 4515 | inactive
ERP29 | 2.46 | 6766 | active
REXO5 | 0.73 | 5623 | inactive
NFRKB | 0.49 | 5317 | inactive

Already shown: entries from further up.
gene | migration robust z-score | nuclei per well, duplicate mean | outcome
REXO5 | 0.73 | 5623 | inactive
NFRKB | 0.49 | 5317 | inactive

The list goes on:
gene | migration robust z-score | nuclei per well, duplicate mean | outcome
FAM13A | -1.22 | 3449 | inactive
LAIR2 | 0.68 | 5010 | inactive
SGIP1 | 2.69 | 7124 | active
LYSMD2 | 0.75 | 7613 | inactive
HSD17B7 | 1.3 | 6556 | inactive
ZNF419 | 0.92 | 6234 | inactive
CIC | -1.18 | 7418 | inactive
MINDY2 | -1.68 | 6780 | inactive
SOWAHB | -0.4 | 5550 | inactive
CPA2 | 0.16 | 5048 | inactive
RHBDF2 | -0.85 | 5927 | inactive
SPATA31D1 | 1.34 | 5822 | inactive
LMLN | 0.44 | 5540 | inactive
